Among the data in article PMC7375649, “Varicella zoster virus encodes a viral decoy RHIM to inhibit cell death” (PLoS Pathogens, 2020) are binding values, retold here.

The target in experiment [1] is T1, YPet-ZBP1_(170-355) (human) (UniProt Q9H171).
T1 sequence: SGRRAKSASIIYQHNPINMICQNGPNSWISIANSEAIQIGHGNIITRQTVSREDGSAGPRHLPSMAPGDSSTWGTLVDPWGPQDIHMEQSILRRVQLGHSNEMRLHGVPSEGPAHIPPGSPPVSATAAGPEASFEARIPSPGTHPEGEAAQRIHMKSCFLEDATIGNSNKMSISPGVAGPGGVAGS
Briefly: single molecule fluorescence confocal spectroscopy (two-colour coincidence); proteins alone or one mCherry-tagged and one YPet-tagged protein mixed, diluted out of 8 M urea to 0.35-0.7 uM in 25 mM NaH2PO4, 150 mM NaCl, 0.5 mM DTT, pH 7.4; room temperature; 488 and 561 nm lasers; both ….

In experiment [2] the target is T1, YPet-ZBP1_(170-355) (human). Briefly: sodium dodecyl sulfate agarose gel electrophoresis (SDS-AGE); as a8, but assembled samples incubated with 2% SDS at room temperature for 10 min before electrophoresis; both purified.
The target is the same in experiment [3]. The experiment can be described thus: sodium dodecyl sulfate agarose gel electrophoresis (SDS-AGE); 5 uM per protein, alone or combined, dialysed from 8 M urea against assembly buffer overnight; incubated with water for 10 min before electrophoresis; monomer controls kept in 8 M urea; fluorescence imaging; both purified.

No constants are given. Whether binding was seen depends on the method and setting. For part of these data: A result given as binding can be weak or reduced; the word gives no strength.

On to “ORF20_(1-114)mut-mCherry (Varicella zoster virus (strain Dumas)) (domain or fragment)”, for which the binding result in experiment [1] is “binds”.

On to “Ub-ORF20_(1-114)mut (Varicella zoster virus (strain Dumas)) (domain or fragment)”, for which the binding result in experiment [2] is given as “no binding (only incubation with 2% SDS for 10 min)”; in experiment [3], “binds”.
